# Library compounds against nucleic acid targets

Targets, with sequences 5′ to 3′:
SAM-II: SAM-II riboswitch RNA pseudoknot, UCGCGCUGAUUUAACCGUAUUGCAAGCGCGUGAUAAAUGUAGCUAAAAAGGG. Hit rate about 1% of about 21,000 compounds.
PreQ1: PreQ1 riboswitch RNA pseudoknot, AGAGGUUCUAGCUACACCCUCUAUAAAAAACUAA. From B. subtilis. Hit rate about 0.7% of about 24,000 compounds.
TPP: TPP riboswitch RNA three-way junction, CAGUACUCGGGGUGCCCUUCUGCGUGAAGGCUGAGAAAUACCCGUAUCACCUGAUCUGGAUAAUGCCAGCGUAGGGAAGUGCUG. Hit rate about 0.7% of about 24,000 compounds.

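Compounds were printed on reactive glass slides in duplicate spots, a dye-labelled oligonucleotide was laid over them, and the fluorescence left after washing was read. The data file lists only calls. An earlier report of the laboratory on the PreQ1, TPP and SAM-II riboswitches (doi:10.1038/s41467-019-09493-3) used 1 µM RNA for 2 h and required a mean Z-score above 3 (spot signal-to-noise against the whole library), a score well above that on a control array, and duplicate spots agreeing (coefficient of variation under 100); it then also set aside compounds that hit other targets, which this list keeps. The cut-offs behind this list may differ. A missing hit is not proof of no binding, and a hit is not a measured affinity.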 A compound is marked Y if it was called a hit and N if it was screened but was not. The compounds are a random part of those screened. A dash means that no call is listed here.

| compound | SAM-II | PreQ1 | TPP |
|---|---|---|---|
| `CC(CN1CCOCC1)NC1CCN(C(=O)NC2CCCCC2)CC1` (centres unmarked) | N | N | N |
| `CC(C)(C)c1cc(CN2CC[C@H]3CNC[C@H]32)n[nH]1` | N | N | N |
| `CCOC(=O)C1=C(C)NC2=C(C(=O)CC(C)(C)C2)C1c1ccc(-c2ccccc2)cc1` (centres unmarked) | N | N | N |
| `Cc1ccccc1Nc1c(-c2ccccn2)nc2ccccn12` | N | N | N |
| `CC12CN3CC(C)(CN(C1)C3c1ccc(N)cc1)C2=O` (centres unmarked) | - | N | N |
| `CC(O)c1nc2ccccc2n1CCCCOc1ccc(Cl)cc1` (centres unmarked) | - | N | N |
| `CCc1nc(C)c(-c2c(-c3ccccc3)ncn2CC(O)c2cccnc2)[nH]1` (centres unmarked) | N | N | N |
| `Cc1cc2c(c(=O)n1CCN(C)C)C(c1cccc(F)c1)C(C#N)=C(N)O2` (centres unmarked) | N | N | N |
| `COc1cccc(-c2cc(C(F)(F)F)nc(NCc3ccco3)n2)c1` | N | N | N |
| `CN1CCC(COc2cnc(-c3cccc(Cn4nc(-c5cccc(C#N)c5)ccc4=O)c3)nc2)CC1` | N | N | N |
| `CCOC(=O)c1[nH]c(CO)c(C(=O)OCC)c1C` | N | N | N |
| `COCCNC(=O)c1nn(-c2ccc(F)cc2)nc1CO` | - | N | N |
| `NC(Cn1cccn1)c1ccccc1` (centres unmarked) | N | N | N |
| `CCn1c(NCc2ccccn2)nc2c1c(=O)n(C)c(=O)n2C` | N | N | N |
| `Cc1nc2nc(N)nn2c2c1C(=O)CC(C)(C)C2` | N | N | N |
| `Cc1cccc(Nc2cc(C(C)C)nc3nc(-c4cccnc4)nn23)c1` | - | N | N |
| `COc1ccc(C(=O)c2oc3ccccc3c2N)cc1` | N | N | N |
| `CN(CC(=O)N(Cc1ccc(C2CCCCC2)cc1)c1ccc(C(=O)O)c(O)c1)S(=O)(=O)c1c(F)c(F)c(F)c(F)c1F` | N | N | N |
| `O=C(Cc1cccs1)N1CCN(c2ccncc2)CC(O)C1` (centres unmarked) | N | N | N |
| `CN(C)S(=O)(=O)CCNC(=O)[C@@H](N)CC1CCCCC1` | N | N | N |
| `COc1ccc2c(C)c(C(=O)NCCCNc3cccnc3)oc2c1` | Y | N | N |
| `COc1ccc(C2Nc3ncnn3C(c3ccccc3)C2N)cc1` (centres unmarked) | N | N | N |
| `Cc1cccc(OCC(O)Cn2c(=N)n(CCN3CCOCC3)c3ccccc32)c1` (centres unmarked) | N | N | N |
| `COc1ccc(CCN[C@H]2CS(=O)(=O)C[C@@H]2S(=O)(=O)c2ccc(F)cc2)cc1OC` | - | N | N |
| `COc1cc(CNCc2ccccn2)ccc1OCCO` | N | N | N |
| `COc1cc(Nc2nc3ccccc3c3nncn23)cc(OC)c1OC` | N | N | N |
| `CCc1cc(-c2cc(C(C)C)nc(N)c2C#N)[nH]n1` | N | N | N |
| `Cn1c(C(=O)N2CCN(Cc3ccoc3)C(CCO)C2)cc(=O)n(C)c1=O` (centres unmarked) | N | N | N |
| `CN1CCCCC1CCC(=O)NCCCc1nnc(N)s1` (centres unmarked) | N | N | N |
| `Cc1c(C#N)c(N)n(CC2CCCO2)c1C` (centres unmarked) | N | N | N |
| `Cc1oc(C(C)(C)C)cc1C(=O)NCCNc1c(Cl)cccc1[N+](=O)[O-]` | N | N | N |
| `Fc1ccccc1-c1nccc(C2(c3ccccc3Cl)CCNCC2)n1` | N | N | N |
| `OC[C@]12CCCN[C@@H]1CCN(Cc1cccc3c1OC(F)(F)O3)C2` | N | N | N |
| `C=CCOc1ccc(C2C(C#N)=C(N)Oc3cc(O)ccc32)cc1Cl` (centres unmarked) | N | N | N |
| `COc1cccc([C@@H](C)NCCCc2ccccc2Cl)c1` | N | N | N |
| `COCCCNc1oc(-c2ccc(F)cc2)nc1S(=O)(=O)c1ccccc1` | - | N | N |
| `CNC1=C(C(=O)N2CCOCC2)S(=O)(=O)c2ccccc21` | N | N | N |
| `O=P1(N(CCCl)CCCl)NCCCO1` (centres unmarked) | N | N | N |
| `C=CCNc1ccccc1C(=O)NCCN1CCCC1` | N | N | N |
| `CCCn1cnc2c(Sc3c([N+](=O)[O-])ncn3C)nc(N)nc21` | N | N | N |
| `Nc1ncnc2nc(-c3ccncc3)nn12` | Y | N | N |
| `O=C(O)c1ccc2c(c1Nc1ccccc1)C(=O)c1ccccc1C2=O` | N | N | N |
| `O=c1cc(-c2cccnc2)oc2c1ccc1ccccc12` | N | N | N |
| `Cc1ncc2c(c1CNC(=O)c1cc3ccccc3s1)CCNC2` | N | N | N |
| `CCOc1cc2ncc(C#N)c(Nc3ccc(OCc4ccccn4)c(Cl)c3)c2cc1NC(=O)C=CCN(C)C` | N | N | N |

For reference, 5 entries once more:

| compound | SAM-II | PreQ1 | TPP |
|---|---|---|---|
| `COc1cccc(-c2cc(C(F)(F)F)nc(NCc3ccco3)n2)c1` | N | N | N |
| `CCn1c(NCc2ccccn2)nc2c1c(=O)n(C)c(=O)n2C` | N | N | N |
| `COc1cc(Nc2nc3ccccc3c3nncn23)cc(OC)c1OC` | N | N | N |
| `Cc1oc(C(C)(C)C)cc1C(=O)NCCNc1c(Cl)cccc1[N+](=O)[O-]` | N | N | N |
| `CN1CCCCC1CCC(=O)NCCCc1nnc(N)s1` (centres unmarked) | N | N | N |

Calls as published in the ROBIN set (doi:10.1002/anie.202211358).